Measurements from US20030092631A1 (Genentech, published 2003).
No constants are given. Whether binding was seen depends on the method and setting. Some binding calls cover weakened binding; strength is not graded here.

Chains of the proteins cited; added tags and fusions are not shown. Residues count along the entry.
UniProt P05019, residues 49-118: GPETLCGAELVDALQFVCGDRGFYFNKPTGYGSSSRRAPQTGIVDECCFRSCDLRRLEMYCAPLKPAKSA

Molecular target: IGF-1 (human, UniProt P05019 49-118)
Test: phage ELISA, IGF-1 on plate
Procedure: From each round, individual peptide-displaying phage were isolated and analyzed for binding to IGF-1 in a phage ELISA by capturing the peptide-phage with IGF-1 immobilized on a plate, and detecting bound phage (see below). As a control for non-specific binding, the phage were also analyzed in a phage ELISA that used plates coated with BSA. […]
MAXISORP™ immunoplates (96-well) were coated with capture target protein for 2 hours at room temperature (100 μL at 5 μg/mL in 50 mM carbonate buffer, pH 9.6). The plates were then blocked for 1 h with 0.2% BSA in phosphate-buffered saline (PBS) and washed eight times with PBS, 0.05% TWEEN®-20 detergent. Phage particles were serially diluted into BSA blocking buffer and 100 μL were transferred to coated wells. After I h, plates were washed eight times with PBS, 0.05% TWEEN®-20 detergent, incubated with 100 μL of 1:3000 horse radish peroxidase/anti-M 13 antibody conjugate in BSA blocking buffer for 30 min. and then washed eight times with PBS, 0.05% TWEEN®-20 detergent and two times with PBS. Plates were developed using a tetramethylbenzidine substrate (TMB, Kirkegaard and Perry, Gaithersburg, Md.), stopped with 1.0 M H3PO₄, and read spectrophotometrically at 450 nm.

binding: binds
Substance: … (from UniProt P01241 27-217) (peptide)
